Measured values reported in patent US5225528A (priority 1990, dated 1993).

Columns and labels:
[1] = general procedure: Boc solid-phase peptide synthesis; Boc-Pro-O-(PAM)-resin; BOP reagent/DIEA for some couplings; acid chloride coupling; conditions: whole synthesis, scale 1 mmole, head-to-tail ring
[2] = general procedure: Boc solid-phase peptide synthesis; Boc-L-Pro-O-(PAM)-resin; chloromethylated resin (Merrifield resin); BOP reagent/DIEA for some couplings; acid chloride coupling; conditions: whole synthesis, HPLC Method G, scale of the general procedure 1 mmole, head-to-tail ring
[3] = general procedure: Boc solid-phase peptide synthesis; Boc-L-Pro-PAM-resin; BOP reagent/DIEA for some couplings; acid chloride coupling; conditions: whole synthesis, 214 nM, head-to-tail ring
[4] = general procedure: Boc solid-phase peptide synthesis; Boc-L-Pro-(Merrifield)-resin; BOP reagent/DIEA for some couplings; acid chloride coupling; conditions: whole synthesis, 214 nM, head-to-tail ring
[5] = general procedure: Boc solid-phase peptide synthesis; Boc-D-Trp-O-(Merrifield)-resin; BOP reagent/DIEA for some couplings; acid chloride coupling; conditions: whole synthesis, scale 1 mmole, head-to-tail ring

Q: What does the source list for “C-[D-1-Napthylalanyl-L-isoleucyl-D-pipecolyl-L-(N-t-butyloxycarbonyl)lysyl- D-(N-methyl)phenylalanyl-L-prolyl]”?
A: isolated mass [1]: 350 mg; isolated yield [1]: 77%; final HPLC purity [2]: 99%

Q: With “c-[D-2-Trytophanyl-L-isoleucinyl-D-pipecolyl-L-piperazin-2-yl-(4-Cbz)-D-histidinyl(BOM)-L-prolyl]” as the substance, how does the “final HPLC purity” value [3] read?
A: >96% pure

Q: Which “final HPLC purity” value [4] does the source give for “c-[D-Phenylalanyl-L-isoleucinyl-D-pipecolyl-L-pipecolyl-D-(β-t-butyl)aspartyl-L-prolyl]” here?
A: >98% pure

Q: For “c-[D-Tryptophanyl-L-isoleucinyl-D-pipecolyl-L-pipecolyl-D-(β-t-butyl)aspartyl-L-prolyl]”, which “final HPLC purity” value [4] is on record?
A: >95% pure

Q: Which results are given for “c-[D-Tryptophanyl-L-isoleucyl-D-pipecolyl-L-pipecolyl-D-histidyl-3,4-dehydroprolyl]”?
A: isolated mass [5]: 301 mg; isolated yield [5]: 40%; final HPLC purity [2]: 99%
